Test results from publication PMC11254670, “Soluble CD72, is a T-cell activator probably via binding to CD6 in homeostasis and autoimmunity” (Frontiers in Immunology, 2024).
These are yes or no findings as the source states them, for the method shown. Binding seen in cells or lysates may run through a third protein. These calls come from enrichment with a bait or labelling near it, and not all partners need be listed. Where a sequence is shown, tags or fusion partners need not be part of it. One block for each molecule: values may come before it.

By UniProt entry, the sequences of proteins in these tests, tags left out. Residues count along the entry.
UniProt P08575, residues 26-1306: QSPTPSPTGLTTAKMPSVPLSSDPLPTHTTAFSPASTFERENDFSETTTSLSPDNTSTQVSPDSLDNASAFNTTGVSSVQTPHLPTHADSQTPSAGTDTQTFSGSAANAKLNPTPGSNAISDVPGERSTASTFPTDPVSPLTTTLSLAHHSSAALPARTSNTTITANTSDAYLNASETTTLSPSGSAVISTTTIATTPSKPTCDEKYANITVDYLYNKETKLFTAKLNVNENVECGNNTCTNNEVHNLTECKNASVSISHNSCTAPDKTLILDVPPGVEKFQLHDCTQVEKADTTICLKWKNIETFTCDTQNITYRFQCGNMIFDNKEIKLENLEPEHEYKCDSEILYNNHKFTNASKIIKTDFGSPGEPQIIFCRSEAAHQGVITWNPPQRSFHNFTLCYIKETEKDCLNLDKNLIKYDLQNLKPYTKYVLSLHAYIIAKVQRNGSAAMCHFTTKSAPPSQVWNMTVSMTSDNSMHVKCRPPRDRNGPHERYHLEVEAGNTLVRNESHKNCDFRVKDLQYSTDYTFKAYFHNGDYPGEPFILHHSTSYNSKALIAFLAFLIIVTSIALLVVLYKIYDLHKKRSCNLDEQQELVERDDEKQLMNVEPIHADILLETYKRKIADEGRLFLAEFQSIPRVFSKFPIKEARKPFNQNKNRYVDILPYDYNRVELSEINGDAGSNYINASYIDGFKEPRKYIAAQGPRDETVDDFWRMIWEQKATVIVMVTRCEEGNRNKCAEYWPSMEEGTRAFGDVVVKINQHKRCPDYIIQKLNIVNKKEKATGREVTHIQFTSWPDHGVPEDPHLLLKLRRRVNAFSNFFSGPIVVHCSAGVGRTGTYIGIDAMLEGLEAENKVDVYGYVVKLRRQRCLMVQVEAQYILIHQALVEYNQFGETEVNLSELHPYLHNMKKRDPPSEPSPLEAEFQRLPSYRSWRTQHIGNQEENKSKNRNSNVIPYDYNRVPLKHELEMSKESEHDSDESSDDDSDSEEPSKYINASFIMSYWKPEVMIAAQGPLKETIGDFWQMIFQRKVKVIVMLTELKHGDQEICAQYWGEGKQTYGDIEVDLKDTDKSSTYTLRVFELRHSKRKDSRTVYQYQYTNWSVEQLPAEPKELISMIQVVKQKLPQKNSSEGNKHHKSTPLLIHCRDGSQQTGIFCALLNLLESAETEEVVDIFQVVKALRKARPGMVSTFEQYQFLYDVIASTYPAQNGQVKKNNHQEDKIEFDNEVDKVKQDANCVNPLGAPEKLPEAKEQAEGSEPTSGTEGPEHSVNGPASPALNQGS
UniProt Q08722, residues 19-323: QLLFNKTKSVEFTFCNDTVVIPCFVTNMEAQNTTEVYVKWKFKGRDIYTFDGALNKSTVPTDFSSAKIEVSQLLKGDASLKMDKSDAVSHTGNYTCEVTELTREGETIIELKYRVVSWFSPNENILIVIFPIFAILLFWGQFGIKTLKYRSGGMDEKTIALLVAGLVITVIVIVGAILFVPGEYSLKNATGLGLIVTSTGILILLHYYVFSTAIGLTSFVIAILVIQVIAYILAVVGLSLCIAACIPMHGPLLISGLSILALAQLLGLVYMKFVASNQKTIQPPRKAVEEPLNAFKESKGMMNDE
UniProt P05107, residues 23-769: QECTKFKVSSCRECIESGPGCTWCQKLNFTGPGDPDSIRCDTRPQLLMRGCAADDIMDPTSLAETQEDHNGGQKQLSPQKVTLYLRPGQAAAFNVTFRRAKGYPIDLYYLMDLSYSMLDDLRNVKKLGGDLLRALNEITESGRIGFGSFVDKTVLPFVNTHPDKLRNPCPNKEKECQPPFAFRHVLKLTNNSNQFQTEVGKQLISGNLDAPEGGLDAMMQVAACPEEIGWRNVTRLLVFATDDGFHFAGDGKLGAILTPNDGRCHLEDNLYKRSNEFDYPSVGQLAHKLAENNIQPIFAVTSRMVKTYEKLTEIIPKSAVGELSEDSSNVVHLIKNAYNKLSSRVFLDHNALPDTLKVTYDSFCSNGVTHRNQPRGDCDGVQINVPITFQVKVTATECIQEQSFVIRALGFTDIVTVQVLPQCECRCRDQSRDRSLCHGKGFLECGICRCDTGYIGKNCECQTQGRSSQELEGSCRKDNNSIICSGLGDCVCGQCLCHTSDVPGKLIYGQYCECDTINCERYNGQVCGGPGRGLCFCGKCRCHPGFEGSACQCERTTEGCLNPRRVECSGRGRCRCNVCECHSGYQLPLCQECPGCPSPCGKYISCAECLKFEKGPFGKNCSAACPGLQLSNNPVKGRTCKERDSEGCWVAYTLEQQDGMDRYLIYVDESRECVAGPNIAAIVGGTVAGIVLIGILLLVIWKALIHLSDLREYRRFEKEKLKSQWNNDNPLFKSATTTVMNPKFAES

Molecular target: T1, soluble CD72 (extracellular part of human CD72, amino acids 117-359, V5 and 8xHis tagged) (human) (UniProt P21854)
T1 sequence: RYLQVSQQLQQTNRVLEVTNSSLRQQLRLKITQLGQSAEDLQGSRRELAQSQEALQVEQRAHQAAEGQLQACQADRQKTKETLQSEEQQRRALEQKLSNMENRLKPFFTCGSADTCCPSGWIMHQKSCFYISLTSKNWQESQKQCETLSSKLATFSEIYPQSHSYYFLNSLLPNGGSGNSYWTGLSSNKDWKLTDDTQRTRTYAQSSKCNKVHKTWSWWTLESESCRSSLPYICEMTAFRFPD
Test: affinity purification with mass spectrometry; activated CD4+ T cells rotated with 5 ug/ml purified sCD72-V5 for 2 h at 4°C, cross-linked with 2.5 mM BS3, lysed (1% NP-40, 0.1% DOC), anti-V5 magnetic beads, elution with V5 peptide, SDS-PAGE, LC-MSMS; compared to control; only the target purified

- binding: binds
Molecule: PTPRC (from UniProt P08575 26-1306)

- binding: binds
Molecule: CD47 (from UniProt Q08722 19-323) (receptor)

- binding: binds
Molecule: ITGB2 (from UniProt P05107 23-769)

- binding: binds
B1: CD6 (receptor, UniProt P30203 18-668)
chain: HPSPAPPDQLNTSSAESELWEPGERLPVRLTNGSSSCSGTVEVRLEASWEPACGALWDSRAAEAVCRALGCGGAEAASQLAPPTPELPPPPAAGNTSVAANATLAGAPALLCSGAEWRLCEVVEHACRSDGRRARVTCAENRALRLVDGGGACAGRVEMLEHGEWGSVCDDTWDLEDAHVVCRQLGCGWAVQALPGLHFTPGRGPIHRDQVNCSGAEAYLWDCPGLPGQHYCGHKEDAGAVCSEHQSWRLTGGADRCEGQVEVHFRGVWNTVCDSEWYPSEAKVLCQSLGCGTAVERPKGLPHSLSGRMYYSCNGEELTLSNCSWRFNNSNLCSQSLAARVLCSASRSLHNLSTPEVPASVQTVTIESSVTVKIENKESRELMLLIPSIVLGILLLGSLIFIAFILLRIKGKYALPVMVNHQHLPTTIPAGSNSYQPVPITIPKEVFMLPIQVQAPPPEDSDSGSDSDYEHYDFSAQPPVALTTFYNSQRHRVTDEEVQQSRFQMPPLEEGLEELHASHIPTANPGHCITDPPSLGPQYHPRSNSESSTSSGEDYCNSPKSKLPPWNPQVFSSERSSFLEQPPNLELAGTQPAFSAGPPADDSSSTSSGEWYQNFQPPPQPPSEEQFGCPGSPSPQPDSTDNDDYDDISAA
